This is an account of results in patent US10654845B2, “2-(het)aryl-substituted fused bicyclic heterocycle derivatives as pesticides” (BAYER CROPSCIENCE AKTIENGESELLSCHAFT, priority 2015, dated 2020).

The data set in a line: log P by HPLC on reversed-phase column (C18), EEC Directive 79/831 Annex V.A8. The text has this: Called log P (HCOOH) in the table.
Called log P (neutral) in the table.

The structures appear in SMILES notation.

As to `CCS(=O)(=O)c1ccc([S+](C)[O-])nc1-c1nc2cc(C(F)(F)F)ncc2n1C` (centres unmarked) [Example 44], the logP-acidic (LC-MS acidic range, pH 2.7 (HCOOH), C18, 55° C.) worked out at 1.81. In addition, the logP-neutral (LC-MS neutral range, pH 7.8, C18, 55° C.) came to 1.81.
